Results are given in words; binding and its absence hold for the method and conditions named. In cells and extracts the contact can be indirect. Some entries that bind do so weakly or less than the wild type. For part of these data: Where a sequence is shown, tags or fusion partners need not be part of it.

By UniProt entry, the sequences of proteins in these tests, tags left out.
UniProt P40763: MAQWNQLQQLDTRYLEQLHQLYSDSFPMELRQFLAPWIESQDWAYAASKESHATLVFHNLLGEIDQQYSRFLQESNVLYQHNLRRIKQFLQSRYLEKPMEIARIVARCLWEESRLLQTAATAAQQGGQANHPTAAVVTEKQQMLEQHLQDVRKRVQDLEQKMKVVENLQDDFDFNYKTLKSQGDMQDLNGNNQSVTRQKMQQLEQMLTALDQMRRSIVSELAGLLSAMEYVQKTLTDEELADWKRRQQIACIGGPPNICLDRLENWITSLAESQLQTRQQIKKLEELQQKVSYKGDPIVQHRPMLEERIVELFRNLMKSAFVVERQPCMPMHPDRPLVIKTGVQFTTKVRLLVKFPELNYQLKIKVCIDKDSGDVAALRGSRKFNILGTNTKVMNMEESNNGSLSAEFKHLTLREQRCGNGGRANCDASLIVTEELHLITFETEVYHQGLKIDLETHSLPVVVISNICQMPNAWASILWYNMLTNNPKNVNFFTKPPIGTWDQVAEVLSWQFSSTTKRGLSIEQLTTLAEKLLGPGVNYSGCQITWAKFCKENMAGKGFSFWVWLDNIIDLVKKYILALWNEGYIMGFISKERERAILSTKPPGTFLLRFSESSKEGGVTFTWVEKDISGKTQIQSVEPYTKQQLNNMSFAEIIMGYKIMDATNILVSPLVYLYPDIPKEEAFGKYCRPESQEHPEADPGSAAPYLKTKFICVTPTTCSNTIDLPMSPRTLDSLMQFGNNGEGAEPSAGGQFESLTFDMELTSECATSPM

One experiment addresses T1, HA-SIRT2 (UniProt Q8IXJ6).
T1 sequence: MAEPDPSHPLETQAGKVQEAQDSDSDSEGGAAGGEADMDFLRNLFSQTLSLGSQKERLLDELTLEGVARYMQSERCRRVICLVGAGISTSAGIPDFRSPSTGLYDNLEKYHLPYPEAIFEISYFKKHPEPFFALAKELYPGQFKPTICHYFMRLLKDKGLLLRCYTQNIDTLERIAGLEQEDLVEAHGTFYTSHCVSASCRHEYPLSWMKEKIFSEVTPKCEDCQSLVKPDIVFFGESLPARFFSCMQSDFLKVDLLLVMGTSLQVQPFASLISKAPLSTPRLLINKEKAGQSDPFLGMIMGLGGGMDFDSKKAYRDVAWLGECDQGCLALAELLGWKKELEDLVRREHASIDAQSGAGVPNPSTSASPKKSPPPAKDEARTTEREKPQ
The experiment can be described thus: co-IP; cells co-transfected with Flag-STAT3 and HA-SIRT2 for 48 h; NP40 lysis buffer; Flag or HA antibody overnight at 4 °C, protein A/G agarose beads; western blot. In general terms: In western blotting, separated proteins are transferred to a membrane and probed.

For another experiment, the target named is Flag-STAT3 (UniProt P40763). Described as above.
For experiment [1], the target named is endogenous STAT3 (human (endogenous in SW480)) (UniProt P40763). The experiment can be described thus: co-IP; endogenous proteins; SW480 cell lysate, immunoprecipitation and western blot.

With Flag-STAT3 (from UniProt P40763 1-770), the binding result with HA-SIRT2 is “binds”.

B1: HA-SIRT2 (protein, UniProt Q8IXJ6 1-389)
chain: T1 sequence
Consider B1, for which the binding entry with Flag-STAT3 is recorded as “binds”.

B2: endogenous SIRT2 (protein, UniProt Q8IXJ6 1-389)
chain: T1 sequence
In the case of B2, in experiment [1], the binding entry is on record as “binds”.

These data come from PMC6315023.
